Results: US20230348607A1 (EXELIXIS, published 2023)
No constants are given. Whether binding was seen depends on the method and setting. Some entries that bind do so weakly or less than the wild type.

How the values were obtained:
[1] = molecular target: T1, human AMHR-II receptor expressed at the surface of the COV434-AMHR-II transfected cell line (human) (UniProt Q16671); test: flow cytometry (figure legend)
T1 sequence: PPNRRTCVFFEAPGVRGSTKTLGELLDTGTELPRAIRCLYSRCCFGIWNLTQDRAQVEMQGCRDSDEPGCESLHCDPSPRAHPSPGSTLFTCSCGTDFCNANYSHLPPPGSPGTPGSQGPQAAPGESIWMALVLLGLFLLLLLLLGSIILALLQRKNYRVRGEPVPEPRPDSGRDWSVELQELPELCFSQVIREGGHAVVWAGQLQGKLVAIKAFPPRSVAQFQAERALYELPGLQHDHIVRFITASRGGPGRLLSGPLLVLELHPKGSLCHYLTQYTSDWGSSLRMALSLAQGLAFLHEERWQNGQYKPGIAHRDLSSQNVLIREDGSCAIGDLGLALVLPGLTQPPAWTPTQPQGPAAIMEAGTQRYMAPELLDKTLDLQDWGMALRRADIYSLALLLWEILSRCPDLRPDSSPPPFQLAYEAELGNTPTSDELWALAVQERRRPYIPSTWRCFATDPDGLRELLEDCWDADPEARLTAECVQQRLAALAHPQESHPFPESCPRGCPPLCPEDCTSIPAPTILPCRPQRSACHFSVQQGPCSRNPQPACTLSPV

[2] = molecular target: T1, human AMHR-II receptor expressed at the surface of the COV434-AMHR-II transfected cell line (human); test: flow cytometry, 10 µg/ml 4A3

- binding [1]: binds
- binding [2]: binds
B1: anti-AMHR-II 4A3 antibody (antibody, human IgG1, lambda, V domains shown)
VH: EVQLVESGGSLVKPGGSLRLSCAASGFTFSNNAMNWVRQAPGKGLEWISYISGSSRYISYADFVKGRFTISRDNAKNSLYLQMNSLRAEDTAVYYCVRSSDDYFGGGMDVWGRGTLVTVSS
VL: QSVLTQPASVSGSPGQSITISCAGTSSDVGGDNDVSWYQQHPGKAPKLMIYYDSYRPSGVSNRFSGSKSGNTASLTISGLQAEDEADYYCSSSTYYSTRVFGGGTKLTVLG
notes: The tie is therefore indirect; 4A3 was detected with anti-human F(ab')2 and anti-human IgG secondary reagents; also called antibody 4A3; 4A3 antagonist antibody
